Measurements reported in article doi:10.1101/2024.10.17.618797.
No constants are given. Whether binding was seen depends on the method and setting. In cells and extracts the contact can be indirect. Some binding calls cover weakened binding; strength is not graded here. For part of these data: Sequences can lack the tags named with a protein.

Chains of the proteins cited; added tags and fusions are not shown.
UniProt Q8N4N8: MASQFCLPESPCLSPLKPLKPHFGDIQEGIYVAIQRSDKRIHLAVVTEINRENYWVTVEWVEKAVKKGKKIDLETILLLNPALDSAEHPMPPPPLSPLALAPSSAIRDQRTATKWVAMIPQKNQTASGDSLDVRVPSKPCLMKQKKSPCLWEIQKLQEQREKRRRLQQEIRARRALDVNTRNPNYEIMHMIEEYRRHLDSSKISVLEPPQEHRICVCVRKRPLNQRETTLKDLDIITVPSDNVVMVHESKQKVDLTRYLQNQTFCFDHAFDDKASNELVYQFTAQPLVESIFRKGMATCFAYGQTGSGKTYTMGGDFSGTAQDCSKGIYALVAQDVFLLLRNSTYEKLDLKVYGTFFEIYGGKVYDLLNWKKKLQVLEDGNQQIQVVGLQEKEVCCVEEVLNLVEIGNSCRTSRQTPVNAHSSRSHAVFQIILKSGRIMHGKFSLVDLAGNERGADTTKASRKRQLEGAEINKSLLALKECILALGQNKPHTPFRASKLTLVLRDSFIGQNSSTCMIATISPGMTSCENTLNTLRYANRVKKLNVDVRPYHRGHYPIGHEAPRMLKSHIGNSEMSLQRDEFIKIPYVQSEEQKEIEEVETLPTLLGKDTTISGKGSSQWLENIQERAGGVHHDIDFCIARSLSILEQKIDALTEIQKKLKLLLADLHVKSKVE
UniProt Q03164: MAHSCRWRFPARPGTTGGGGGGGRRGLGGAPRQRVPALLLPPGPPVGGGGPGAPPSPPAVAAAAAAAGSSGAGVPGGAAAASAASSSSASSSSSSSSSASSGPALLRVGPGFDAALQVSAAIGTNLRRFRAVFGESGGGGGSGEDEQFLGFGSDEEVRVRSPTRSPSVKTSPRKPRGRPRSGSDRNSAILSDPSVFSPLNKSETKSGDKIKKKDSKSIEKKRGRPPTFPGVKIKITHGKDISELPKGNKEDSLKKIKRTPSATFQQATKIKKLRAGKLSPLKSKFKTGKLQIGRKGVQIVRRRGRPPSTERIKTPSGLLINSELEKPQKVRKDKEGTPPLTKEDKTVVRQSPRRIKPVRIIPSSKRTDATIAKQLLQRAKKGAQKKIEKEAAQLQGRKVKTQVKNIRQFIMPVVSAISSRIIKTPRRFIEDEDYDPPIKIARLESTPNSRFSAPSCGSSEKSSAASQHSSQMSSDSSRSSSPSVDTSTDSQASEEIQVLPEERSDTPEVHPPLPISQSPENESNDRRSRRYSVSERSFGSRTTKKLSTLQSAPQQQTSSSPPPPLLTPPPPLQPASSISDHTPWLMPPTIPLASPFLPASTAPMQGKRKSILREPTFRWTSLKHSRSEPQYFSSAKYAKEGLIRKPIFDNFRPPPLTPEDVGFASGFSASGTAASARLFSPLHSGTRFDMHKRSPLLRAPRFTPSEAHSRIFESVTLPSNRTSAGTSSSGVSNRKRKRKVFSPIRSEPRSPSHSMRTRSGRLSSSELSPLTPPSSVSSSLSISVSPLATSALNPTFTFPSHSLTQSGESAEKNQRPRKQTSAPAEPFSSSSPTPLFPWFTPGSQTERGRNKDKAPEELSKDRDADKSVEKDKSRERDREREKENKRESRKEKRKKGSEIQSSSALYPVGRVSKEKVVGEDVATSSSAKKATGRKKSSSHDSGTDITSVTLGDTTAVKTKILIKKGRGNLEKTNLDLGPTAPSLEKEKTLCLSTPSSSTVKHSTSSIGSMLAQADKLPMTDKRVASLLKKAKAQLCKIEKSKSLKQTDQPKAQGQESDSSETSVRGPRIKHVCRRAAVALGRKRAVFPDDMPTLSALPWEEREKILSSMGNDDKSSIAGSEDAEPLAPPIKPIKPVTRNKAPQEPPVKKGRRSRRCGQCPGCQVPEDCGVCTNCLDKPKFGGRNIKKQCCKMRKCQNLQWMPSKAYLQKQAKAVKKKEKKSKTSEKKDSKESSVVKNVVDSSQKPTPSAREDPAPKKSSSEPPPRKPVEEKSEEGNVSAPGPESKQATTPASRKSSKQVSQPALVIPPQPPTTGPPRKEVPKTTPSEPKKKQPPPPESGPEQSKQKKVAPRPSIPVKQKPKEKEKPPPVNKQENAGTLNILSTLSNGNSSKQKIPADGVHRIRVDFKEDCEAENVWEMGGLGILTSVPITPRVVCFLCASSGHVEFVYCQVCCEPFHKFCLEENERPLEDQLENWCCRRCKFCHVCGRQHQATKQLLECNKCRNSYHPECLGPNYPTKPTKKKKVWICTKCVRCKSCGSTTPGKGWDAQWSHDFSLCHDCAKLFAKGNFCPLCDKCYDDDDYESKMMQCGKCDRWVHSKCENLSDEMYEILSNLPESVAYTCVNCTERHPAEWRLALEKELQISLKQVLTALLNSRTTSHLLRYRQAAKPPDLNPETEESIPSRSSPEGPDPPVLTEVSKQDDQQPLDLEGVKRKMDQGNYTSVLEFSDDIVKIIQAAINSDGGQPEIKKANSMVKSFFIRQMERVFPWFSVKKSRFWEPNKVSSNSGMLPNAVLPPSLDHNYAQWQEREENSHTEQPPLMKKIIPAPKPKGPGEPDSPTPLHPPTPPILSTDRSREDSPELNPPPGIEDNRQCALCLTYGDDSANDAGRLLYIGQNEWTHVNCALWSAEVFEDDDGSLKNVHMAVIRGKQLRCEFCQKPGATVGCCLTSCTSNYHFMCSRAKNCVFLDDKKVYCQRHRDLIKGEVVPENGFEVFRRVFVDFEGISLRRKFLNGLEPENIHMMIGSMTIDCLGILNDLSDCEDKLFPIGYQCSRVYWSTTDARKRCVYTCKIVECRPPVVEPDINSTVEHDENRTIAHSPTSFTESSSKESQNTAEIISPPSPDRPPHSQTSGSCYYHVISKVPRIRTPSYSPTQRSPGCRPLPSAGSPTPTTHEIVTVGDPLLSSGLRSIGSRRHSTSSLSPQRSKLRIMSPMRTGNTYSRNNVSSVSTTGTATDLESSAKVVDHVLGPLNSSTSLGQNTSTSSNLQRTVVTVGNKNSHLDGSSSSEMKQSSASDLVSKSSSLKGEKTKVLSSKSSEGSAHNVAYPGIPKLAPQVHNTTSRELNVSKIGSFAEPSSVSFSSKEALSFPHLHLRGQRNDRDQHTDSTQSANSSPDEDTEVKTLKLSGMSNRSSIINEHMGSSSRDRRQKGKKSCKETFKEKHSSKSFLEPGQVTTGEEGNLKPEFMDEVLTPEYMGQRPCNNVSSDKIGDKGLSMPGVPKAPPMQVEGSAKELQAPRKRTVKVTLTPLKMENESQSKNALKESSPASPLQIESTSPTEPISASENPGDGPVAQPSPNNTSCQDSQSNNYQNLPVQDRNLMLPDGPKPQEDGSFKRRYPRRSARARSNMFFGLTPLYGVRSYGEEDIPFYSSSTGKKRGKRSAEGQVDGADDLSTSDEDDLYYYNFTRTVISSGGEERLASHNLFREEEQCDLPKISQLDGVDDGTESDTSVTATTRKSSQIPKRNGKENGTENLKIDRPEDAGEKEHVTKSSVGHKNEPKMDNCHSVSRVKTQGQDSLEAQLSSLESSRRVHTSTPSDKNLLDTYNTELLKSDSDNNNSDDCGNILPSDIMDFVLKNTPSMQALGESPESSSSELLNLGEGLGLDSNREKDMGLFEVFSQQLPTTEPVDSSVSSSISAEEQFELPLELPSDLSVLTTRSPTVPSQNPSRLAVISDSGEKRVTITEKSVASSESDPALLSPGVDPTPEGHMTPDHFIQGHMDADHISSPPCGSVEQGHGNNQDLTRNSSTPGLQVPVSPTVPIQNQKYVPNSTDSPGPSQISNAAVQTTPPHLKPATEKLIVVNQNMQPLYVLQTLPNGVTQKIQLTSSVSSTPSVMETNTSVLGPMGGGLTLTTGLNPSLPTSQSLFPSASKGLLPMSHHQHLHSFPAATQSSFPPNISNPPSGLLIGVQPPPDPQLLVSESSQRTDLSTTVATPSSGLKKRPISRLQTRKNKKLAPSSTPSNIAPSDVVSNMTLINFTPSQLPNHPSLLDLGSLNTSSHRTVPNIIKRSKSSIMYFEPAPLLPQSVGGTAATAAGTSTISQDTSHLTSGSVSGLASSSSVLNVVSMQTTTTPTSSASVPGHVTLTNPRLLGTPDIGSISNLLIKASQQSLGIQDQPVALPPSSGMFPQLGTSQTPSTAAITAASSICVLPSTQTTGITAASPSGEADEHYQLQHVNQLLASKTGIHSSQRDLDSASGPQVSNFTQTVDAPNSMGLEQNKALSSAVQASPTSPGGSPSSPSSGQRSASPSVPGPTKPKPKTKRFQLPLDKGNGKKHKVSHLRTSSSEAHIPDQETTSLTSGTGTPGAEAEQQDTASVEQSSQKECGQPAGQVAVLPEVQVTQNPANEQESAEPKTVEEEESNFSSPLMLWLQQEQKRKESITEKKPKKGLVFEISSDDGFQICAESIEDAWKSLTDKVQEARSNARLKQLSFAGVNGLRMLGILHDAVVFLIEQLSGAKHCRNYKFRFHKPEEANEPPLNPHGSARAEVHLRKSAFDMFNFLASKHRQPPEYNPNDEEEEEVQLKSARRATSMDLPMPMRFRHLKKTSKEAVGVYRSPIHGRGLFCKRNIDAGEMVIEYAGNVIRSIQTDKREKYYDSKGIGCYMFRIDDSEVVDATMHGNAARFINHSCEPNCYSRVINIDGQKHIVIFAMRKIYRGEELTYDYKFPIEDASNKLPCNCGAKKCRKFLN
UniProt Q15291: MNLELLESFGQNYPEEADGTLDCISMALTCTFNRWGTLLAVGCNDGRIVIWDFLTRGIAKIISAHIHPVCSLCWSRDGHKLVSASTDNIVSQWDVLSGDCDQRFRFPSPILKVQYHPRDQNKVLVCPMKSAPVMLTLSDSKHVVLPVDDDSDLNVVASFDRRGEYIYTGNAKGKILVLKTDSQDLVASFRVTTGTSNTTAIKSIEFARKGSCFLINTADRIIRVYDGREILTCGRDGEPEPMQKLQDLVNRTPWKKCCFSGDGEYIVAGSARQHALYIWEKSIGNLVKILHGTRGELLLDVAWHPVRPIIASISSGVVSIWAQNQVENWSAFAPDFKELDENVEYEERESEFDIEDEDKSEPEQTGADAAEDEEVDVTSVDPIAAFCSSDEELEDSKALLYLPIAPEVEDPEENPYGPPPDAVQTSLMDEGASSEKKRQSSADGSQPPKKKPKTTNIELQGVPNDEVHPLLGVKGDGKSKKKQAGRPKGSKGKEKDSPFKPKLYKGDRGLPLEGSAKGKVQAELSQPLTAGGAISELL

What was measured:
Assay in all cases: pull-down
LAP Tagged KIF2C.GFP = target: T1, LAP Tagged KIF2C.GFP (UniProt Q99661)
T1 sequence: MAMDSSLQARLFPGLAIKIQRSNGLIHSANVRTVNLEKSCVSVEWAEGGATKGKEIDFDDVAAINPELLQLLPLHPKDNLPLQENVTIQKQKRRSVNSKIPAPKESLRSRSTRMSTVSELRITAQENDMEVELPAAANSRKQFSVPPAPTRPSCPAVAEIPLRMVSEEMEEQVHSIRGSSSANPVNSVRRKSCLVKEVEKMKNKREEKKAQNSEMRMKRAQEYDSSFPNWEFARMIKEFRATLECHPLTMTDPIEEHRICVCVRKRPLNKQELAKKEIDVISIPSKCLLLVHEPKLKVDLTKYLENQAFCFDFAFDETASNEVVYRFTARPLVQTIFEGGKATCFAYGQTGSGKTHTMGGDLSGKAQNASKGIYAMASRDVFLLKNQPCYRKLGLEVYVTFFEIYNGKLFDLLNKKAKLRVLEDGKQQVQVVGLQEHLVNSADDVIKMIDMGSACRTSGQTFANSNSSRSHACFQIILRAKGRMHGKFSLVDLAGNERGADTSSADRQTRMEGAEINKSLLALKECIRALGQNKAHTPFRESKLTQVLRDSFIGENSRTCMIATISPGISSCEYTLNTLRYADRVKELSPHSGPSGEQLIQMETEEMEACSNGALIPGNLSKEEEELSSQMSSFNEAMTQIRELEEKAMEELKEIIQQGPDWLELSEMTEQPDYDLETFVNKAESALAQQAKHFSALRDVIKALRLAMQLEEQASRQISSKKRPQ

LAP tagged KIF2B = LAP tagged KIF2B (UniProt Q8N4N8)
GST-KIF2B = GST-KIF2B (UniProt Q8N4N8)
GST-KIF2C = target: T2, GST-KIF2C (UniProt Q99661)
T2 sequence: T1 sequence

binding (LAP Tagged KIF2C.GFP)	binding (LAP tagged KIF2B)	binding (GST-KIF2B)	binding (GST-KIF2C)	Substance
binds	binds			Mixed-lineage leukemia (MLL/KMT2A) protein (endogenous, HeLa) (from UniProt Q03164 1-3969)
binds	binds			RbBP5 (endogenous, HeLa) (from UniProt Q15291 1-538)
		binds	binds	RbBP5 (endogenous, HEK293T) (from UniProt Q15291 1-538)
